Laboratory results as given in paper PMC6775688.
Results are given in words; binding and its absence hold for the method and conditions named. Binding seen in cells or lysates may run through a third protein. Some results given as binding are weak or reduced against the parent protein; the word gives no strength.

Sequences of proteins named here, by UniProt entry; tags and fusion partners are left off. Residues count along the entry.
UniProt P25311, residues 21-298: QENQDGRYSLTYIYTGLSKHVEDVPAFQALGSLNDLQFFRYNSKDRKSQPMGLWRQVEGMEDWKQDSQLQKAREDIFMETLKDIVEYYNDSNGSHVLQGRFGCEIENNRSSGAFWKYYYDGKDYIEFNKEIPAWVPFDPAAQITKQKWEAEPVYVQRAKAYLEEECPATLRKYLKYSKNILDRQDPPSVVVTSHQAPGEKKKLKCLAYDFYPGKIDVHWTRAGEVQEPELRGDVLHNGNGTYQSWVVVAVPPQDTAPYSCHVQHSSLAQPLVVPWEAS
UniProt P21333: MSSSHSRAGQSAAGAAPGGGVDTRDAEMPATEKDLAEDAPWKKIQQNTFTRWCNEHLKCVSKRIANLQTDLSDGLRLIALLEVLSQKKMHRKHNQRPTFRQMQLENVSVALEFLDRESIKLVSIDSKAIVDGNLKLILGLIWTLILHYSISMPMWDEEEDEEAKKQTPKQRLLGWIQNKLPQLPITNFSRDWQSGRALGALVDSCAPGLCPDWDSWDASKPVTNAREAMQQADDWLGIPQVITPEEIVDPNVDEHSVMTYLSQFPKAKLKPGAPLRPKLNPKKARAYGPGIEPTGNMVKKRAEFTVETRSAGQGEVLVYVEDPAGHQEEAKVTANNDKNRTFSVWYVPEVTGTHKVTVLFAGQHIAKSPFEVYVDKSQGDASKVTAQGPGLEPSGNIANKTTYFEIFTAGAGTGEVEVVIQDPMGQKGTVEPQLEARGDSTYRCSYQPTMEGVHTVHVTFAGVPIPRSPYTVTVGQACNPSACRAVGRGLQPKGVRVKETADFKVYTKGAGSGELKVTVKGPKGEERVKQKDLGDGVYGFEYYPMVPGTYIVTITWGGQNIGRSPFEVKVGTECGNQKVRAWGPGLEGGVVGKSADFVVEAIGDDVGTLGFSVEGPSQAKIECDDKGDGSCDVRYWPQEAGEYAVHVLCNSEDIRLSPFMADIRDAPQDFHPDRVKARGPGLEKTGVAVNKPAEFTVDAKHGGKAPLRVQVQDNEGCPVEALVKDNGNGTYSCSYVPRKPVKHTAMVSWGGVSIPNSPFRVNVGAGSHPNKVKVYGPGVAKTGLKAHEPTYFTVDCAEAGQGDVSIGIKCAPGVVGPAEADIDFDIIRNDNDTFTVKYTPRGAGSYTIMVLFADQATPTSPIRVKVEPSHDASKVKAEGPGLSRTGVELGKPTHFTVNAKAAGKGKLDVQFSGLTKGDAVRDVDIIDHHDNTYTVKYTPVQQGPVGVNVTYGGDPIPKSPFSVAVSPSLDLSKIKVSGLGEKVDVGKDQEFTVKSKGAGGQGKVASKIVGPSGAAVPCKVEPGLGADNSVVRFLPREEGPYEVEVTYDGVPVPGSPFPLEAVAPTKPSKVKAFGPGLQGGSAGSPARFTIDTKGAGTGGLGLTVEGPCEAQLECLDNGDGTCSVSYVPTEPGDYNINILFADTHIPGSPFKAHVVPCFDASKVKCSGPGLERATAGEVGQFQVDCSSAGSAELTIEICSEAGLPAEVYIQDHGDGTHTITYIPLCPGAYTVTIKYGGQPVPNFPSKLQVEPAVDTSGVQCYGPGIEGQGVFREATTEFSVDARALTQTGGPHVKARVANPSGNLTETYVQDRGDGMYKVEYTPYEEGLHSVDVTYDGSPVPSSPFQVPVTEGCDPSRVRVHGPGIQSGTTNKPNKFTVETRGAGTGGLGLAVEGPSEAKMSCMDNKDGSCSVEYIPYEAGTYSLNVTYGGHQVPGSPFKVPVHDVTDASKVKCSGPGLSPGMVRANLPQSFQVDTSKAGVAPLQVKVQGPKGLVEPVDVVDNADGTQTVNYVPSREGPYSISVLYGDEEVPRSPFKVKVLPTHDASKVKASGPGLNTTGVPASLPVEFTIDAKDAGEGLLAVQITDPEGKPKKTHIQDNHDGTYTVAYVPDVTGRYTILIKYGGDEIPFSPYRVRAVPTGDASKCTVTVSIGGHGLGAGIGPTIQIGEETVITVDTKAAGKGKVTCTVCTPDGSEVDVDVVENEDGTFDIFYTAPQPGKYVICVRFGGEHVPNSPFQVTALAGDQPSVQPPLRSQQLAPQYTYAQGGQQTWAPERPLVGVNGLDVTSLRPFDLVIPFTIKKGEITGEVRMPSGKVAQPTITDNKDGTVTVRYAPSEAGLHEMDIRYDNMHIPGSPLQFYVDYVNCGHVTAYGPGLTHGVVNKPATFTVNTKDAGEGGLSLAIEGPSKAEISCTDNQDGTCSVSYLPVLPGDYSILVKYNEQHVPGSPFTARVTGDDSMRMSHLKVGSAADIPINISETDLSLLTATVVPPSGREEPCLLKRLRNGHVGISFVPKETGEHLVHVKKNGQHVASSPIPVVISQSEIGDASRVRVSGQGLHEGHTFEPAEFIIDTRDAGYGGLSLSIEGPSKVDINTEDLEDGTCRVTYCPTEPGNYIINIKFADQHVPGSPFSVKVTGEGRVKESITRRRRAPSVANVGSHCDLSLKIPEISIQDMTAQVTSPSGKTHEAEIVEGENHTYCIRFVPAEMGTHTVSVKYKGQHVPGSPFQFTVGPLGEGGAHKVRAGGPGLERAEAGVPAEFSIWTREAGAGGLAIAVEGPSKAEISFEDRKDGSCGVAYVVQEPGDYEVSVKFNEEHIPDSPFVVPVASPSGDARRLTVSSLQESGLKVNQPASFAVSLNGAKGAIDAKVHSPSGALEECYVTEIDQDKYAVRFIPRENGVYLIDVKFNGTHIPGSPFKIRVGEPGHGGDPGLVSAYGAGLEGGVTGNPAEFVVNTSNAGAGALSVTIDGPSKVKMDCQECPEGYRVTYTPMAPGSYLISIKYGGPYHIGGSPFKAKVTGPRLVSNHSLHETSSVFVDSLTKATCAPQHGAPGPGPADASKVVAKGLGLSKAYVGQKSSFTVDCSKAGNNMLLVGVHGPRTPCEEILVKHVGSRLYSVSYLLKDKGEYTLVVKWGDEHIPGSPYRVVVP

Columns and labels:
[1] = target: Zinc-α2-glycoprotein 1 (AZGP1) (human (endogenous in HCT116 and SW480)) (UniProt P25311); assay: co-IP; HCT116 and SW480 cells, endogenous proteins; lysate in RIPA buffer, 5 µl antibody (AZGP1, Sigma) and protein-A agarose beads, 3 h rotation, Western blot
[2] = target: Zinc-α2-glycoprotein 1 (AZGP1), in HEK293 cells (human) (UniProt P25311); assay: co-IP; HEK293 cells, exogenous proteins; lysate in RIPA buffer, 5 µl antibody (AZGP1, Sigma) and protein-A agarose beads, 3 h rotation, Western blot

With “filamin A (FLNA) (from UniProt P21333 1-2647)” the binding [1] was “binds”.
In the case of “filamin A (FLNA), exogenous, in HEK293 cells (from UniProt P21333 1-2647)”, the binding [2] is reported as “binds”.
